Test results taken from patent publication US20100234339A1, “SILVER(I) COMPOUNDS AND THEIR USE IN PHARMACEUTICAL COMPOSITIONS FOR THE TREATMENT,PROPHYLAXIS AND PREVENTION OF INFECTIONS” (priority 2007, published 2010).
At least one compound was matched to its structure with a doubt left.

System: selected clinical isolates of gram positive and gram negative bacteria
Test: MIC, similar experiment
Assay type: cell-based

Compound: N#CCc1ccccn1.N#CCc1ccccn1.O=[N+]([O-])[O-].[Ag+] [Compound 5, [Ag(2-pyridylacetonitrile)2]NO3]
- MIC values: 4 and 32
